# Assay results from the supplement of paper PMC9135407.
# Where “and” joins values, the source holds several entries; their conditions need not be identical. Identical values can stand only once. Counter-ions that a name gives are not always drawn. ± gives the standard deviation of the averaged measurements. The list shows a part of the results. Plates or batches differ in their baseline, so values are only roughly comparable.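 Primary human stellate myofibroblasts activated in culture; inactivation shown by regained lipid droplets. Readout: fraction of Hoechst-counted cells exceeding a per-plate Bodipy threshold, duplicate wells, each plate with DMSO negative and nortriptyline positive controls. Hits: control-normalized score beyond the plate's top-tenth-percentile nortriptyline wells, or among its three best wells. Final well concentrations unstated.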
# System: primary human hepatic stellate cells (donor 1)
# Assay: percent Bodipy-positive cells; higher = more lipid droplet accumulation
# Conditions: 48 h
# [1] = library stock concentration: 2 mM
# [2] = library stock concentration: 3.33 mM
# [3] = library stock concentration: 10 mM
# [4] = library stock concentration: 1 mM
compound,measurement,setting,value
CCN1CCN(Cc2ccc(Nc3ncc(F)c(-c4cc(F)c5nc(C)n(C(C)C)c5c4)n3)nc2)CC1 [Abemaciclib],percent Bodipy-positive cells,[1],55.8 ± 3.3%
CCN(CC)C(=O)C1(c2ccccc2)CC1CN (stereo not given) [Milnacipran HCl],percent Bodipy-positive cells,[2],13.9 ± 1.7%
same,percent Bodipy-positive cells,[3],36.2 ± 6.3%
CCN(CC)C(=O)C1(c2ccccc2)CC1CN (stereo not given) [Milnacipran],percent Bodipy-positive cells,[3],7.35 ± 1.3%
CCN(CC)C(=O)C1(c2ccccc2)CC1CN (stereo not given),percent Bodipy-positive cells,[3],32.8 ± 10%
Cc1cc(C(C)(C)C)cc(C)c1CC1=NCCN1 [Xylometazoline hydrochloride],percent Bodipy-positive cells,,54.8 ± 1.2%
same,percent Bodipy-positive cells,library stock concentration: 7.1 mM,58.2 ± 12%
same,percent Bodipy-positive cells,[3],52.6% and 43.6%
Cc1cc(C(C)(C)C)cc(C)c1CC1=NCCN1 [Xylometazoline HCl],percent Bodipy-positive cells,[2],29.3 ± 5.2%
same,percent Bodipy-positive cells,[3],45.5 ± 3%
CCN(CCCCOC(=O)c1ccc(OC)c(OC)c1)C(C)Cc1ccc(OC)cc1 (stereo not given) [Mebeverine hydrochloride],percent Bodipy-positive cells,,57.5 ± 11%
same,percent Bodipy-positive cells,[3],26.4 ± 8.1%
COc1cc(NC(=O)c2ccccn2)ccc1Cl,percent Bodipy-positive cells,[2],10.7 ± 2.8%
same,percent Bodipy-positive cells,[3],12.3% and 11.6%
O=C(c1cc(O)c(O)c([N+](=O)[O-])c1)c1ccccc1F,percent Bodipy-positive cells,[3],14.6 ± 4.3%
O=c1nc2ccccc2c2n1CC(CN1CCN(c3ccccc3)CC1)N2 (stereo not given),percent Bodipy-positive cells,[3],27.6 ± 9.9%
CC[C@H](CO)Nc1nc(Nc2cccc(-c3ccccn3)c2)c2ncn(C(C)C)c2n1 [(R)-DRF053 dihydrochloride],percent Bodipy-positive cells,[3],18.2 ± 4.1%
c1ccc2c(c1)CC(N1CCN(c3cccc4c3OCCO4)CC1)C2,percent Bodipy-positive cells,[3],50.3 ± 6.8%
CC(=O)c1cc2ccccc2oc1=O [3-Acetylcoumarin],percent Bodipy-positive cells,,5.99 ± 3%
CCCCCCOc1ccccc1C(N)=O [Exalamide],percent Bodipy-positive cells,[3],33 ± 12%
CC(=O)Nc1c(I)c(C(=O)N[C@H]2C(O)O[C@H](CO)[C@@H](O)[C@@H]2O)c(I)c(N(C)C(C)=O)c1I (stereo not given in full) [Metrizamide],percent Bodipy-positive cells,,39.8 ± 6.7%
CCN(CC)CCNC(=O)c1ccc(N)cc1 [Pronestyl],percent Bodipy-positive cells,[3],30.3 ± 8.3%
CCN(CC)CCNC(=O)c1ccc(N)cc1 [Procainamide HCl],percent Bodipy-positive cells,[2],11 ± 3.4%
same,percent Bodipy-positive cells,[3],39.3 ± 11%
CCN(CC)CCNC(=O)c1ccc(N)cc1 [Procainamide hydrochloride],percent Bodipy-positive cells,,21.1 ± 5%
same,percent Bodipy-positive cells,[3],11.4% and 16.6%
NC[C@H](O)c1ccc(O)c(O)c1 [Norepinephrine],percent Bodipy-positive cells,[3],13 ± 1.3%
same,percent Bodipy-positive cells,library stock concentration: 11.8 mM,6.02 ± 2.8%
NC[C@H](O)c1ccc(O)c(O)c1 [Noradrenaline bitartrate monohydrate],percent Bodipy-positive cells,[2],8.58 ± 0.56%
same,percent Bodipy-positive cells,[3],15.7 ± 0.83%
"Cc1ccccc1N1CCN(S(=O)(=O)C[C@]23CC[C@H](C[C@@H]2NC(=O)[C@@H](N)CCS(C)(=O)=O)C3(C)C)CC1 [L-368,899 hydrochloride]",percent Bodipy-positive cells,[3],14.9 ± 1.5%
CCc1cc2c(cc1CC)CC(NC[C@H](O)c1ccc(O)c3[nH]c(=O)ccc13)C2 [Indacaterol Maleate],percent Bodipy-positive cells,[2],43 ± 2.8%
Cc1c(-c2ccc(O)cc2)n(Cc2ccc(OCCN3CCCCCC3)cc2)c2ccc(O)cc12 [Bazedoxifene HCl],percent Bodipy-positive cells,[2],64.7 ± 9.7%
same,percent Bodipy-positive cells,[3],98.9 ± 1.6%
CCOC1O[C@H]([C@@H](COCc2ccccc2)OCc2ccccc2)[C@H](OCc2ccccc2)[C@H]1O (stereo not given in full) [Tribenoside],percent Bodipy-positive cells,,12 ± 1.5%
C=C[C@]1(C)C[C@@H](OC(=O)CSC(C)(C)CNC(=O)[C@H](N)C(C)C)[C@]2(C)[C@H](C)CC[C@]3(CCC(=O)[C@H]32)[C@@H](C)[C@@H]1O [Valnemulin HCl],percent Bodipy-positive cells,[2],19 ± 5.3%
same,percent Bodipy-positive cells,[3],81.3 ± 5.8%
O=C(O)C1=C(CSc2nnnn2CS(=O)(=O)O)CS[C@@H]2[C@H](NC(=O)[C@H](O)c3ccccc3)C(=O)N12 [Cefonicid sodium],percent Bodipy-positive cells,library stock concentration: 3.5 mM,14 ± 9.7%
CCCCC1C(=O)CCC2C(CCCCCCC(=O)O)C(=O)CC12 (stereo not given) [Bicyclo Prostaglandin E1],percent Bodipy-positive cells,[4],10.6 ± 0.24%
CCNC(=O)c1noc(-c2cc(C(C)C)c(O)cc2O)c1-c1ccc(CN2CCOCC2)cc1,percent Bodipy-positive cells,[2],73.506 ± 0.052%
CCOC(=O)[C@@H](C)Oc1cccc2c(=O)n(CC(=O)Nc3ccc4c(c3)OCCO4)ccc12,percent Bodipy-positive cells,[3],26.9 ± 6%
O=C1C(Cl)=C(N2CCOCC2)C(=O)N1c1ccc(Cl)c(Cl)c1,percent Bodipy-positive cells,[2],19 ± 1.2%
same,percent Bodipy-positive cells,[3],32.8 ± 2.5%
CCN(CC)CCCCCCCCOC(=O)c1cc(OC)c(OC)c(OC)c1,percent Bodipy-positive cells,library stock concentration: 12.6 mM,93.31 ± 0.32%
Cc1ccc(NC(=O)CCCCCC(=O)Nc2ccccc2N)cc1 [Pimelic Diphenylamide 106],percent Bodipy-positive cells,[4],18.5 ± 2.8%
Cc1ccc(-c2cc(C(F)(F)F)nn2-c2ccc(S(N)(=O)=O)cc2)cc1 [Celecoxib],percent Bodipy-positive cells,[2],20.4 ± 3.7%
same,percent Bodipy-positive cells,library stock concentration: 5.2 mM,33.4% and 10.7%
CC(C)[N+]1(C)[C@@H]2CC[C@H]1C[C@@H](OC(=O)C(CO)c1ccccc1)C2 (stereo not given in full) [Ipratropium bromide],percent Bodipy-positive cells,,26.69 ± 0.19%
same,percent Bodipy-positive cells,library stock concentration: 4.9 mM,4.9 ± 0.14%
same,percent Bodipy-positive cells,[3],19.5% and 31.2% and 8%
CC(C)[N+]1(C)[C@@H]2CC[C@H]1C[C@@H](OC(=O)C(CO)c1ccccc1)C2 (stereo not given in full) [Ipratropium Bromide],percent Bodipy-positive cells,[2],7.75 ± 0.012%
same,percent Bodipy-positive cells,[3],18.1% and 40.8%
CC(C)ON(CC(=O)NO)S(=O)(=O)c1ccc(-c2ccccc2)cc1,percent Bodipy-positive cells,[4],11.8 ± 2.1%
Cc1[nH]c(/C=C2/C(=O)Nc3ccc(S(=O)(=O)N(C)c4cccc(Cl)c4)cc32)c(C)c1C(=O)N1CCN(C)CC1,percent Bodipy-positive cells,[1],84.4 ± 1.4%
same,percent Bodipy-positive cells,[3],99.8 ± 0.28%
